According to ChEMBL document CHEMBL1139298, “Synthesis and biological evaluation of novel 2,4,5-substituted pyrimidine derivatives for anticancer activity” (Bioorg Med Chem Lett, 2009):

Test system: A549
Experiment: Cytotoxicity against human A549 cells […] by SRB assay
Format: functional, cell-based
Details: A549, 72 h

COc1cccc2c1C(=O)c1c(O)c3c(c(O)c1C2=O)C[C@@](O)(C(=O)CO)C[C@@H]3O[C@H]1C[C@H](N)[C@H](O)[C@H](C)O1 [DOXORUBICIN]
IC50: 25 nM
